# PubChem BioAssay AID1259424 – University of Nebraska Medical Center | 2018
# Screen: 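Seek colon cancer survival genes behaving like KSR1, using a six-gene signature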 (primary screen)
# Cell system: human HCT116 colon cancer cells
# Knock-down reagent: siRNA pool against human genes, 50 nM
# Read-out: 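Log2 levels of six mRNAs (branched-DNA multiplex), adjusted by two reference genes and the non-targeting median, then scored against the average KSR1 knockdown pattern as Pearson r and euclidean distance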
# Reading the numbers: mean correlation with KSR1 profile: higher = expression change more like KSR1 knockdown
# This is an unselected part of about 14,000 reagents. 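Higher correlation or smaller distance means closer resemblance to KSR1 loss; control wells, including KSR1 knockdowns, recur on many plates.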 Further read-outs or replicates are left out here. The record does not give: the time to read-out.
gene symbol,mean correlation with KSR1 profile
IFT38,-0.346
MIR9-1HG,-0.252
YBX3,0.467
KIAA1614,-0.284
CFL2,-0.442
STOM,-0.202
WBP2,0.593
STRA6,-0.144
ROR1,0.437
PCDH9,-0.541
MRPS14,-0.407
SYNJ2,-0.0312
NRDC,-0.491
SSTR3,0.679
KCND2,-0.433
MAGEA2,-0.43
GIMAP4,0.313
TGFB1,-0.591
DSCR8,0.498
HOXD12,0.641
AKR1C4,0.15
VPS4B,0.179
SCAMP3,0.323
IGF2BP2,0.594
RYR1,0.0335
MRGBP,-0.0947
TLR4,0.424
GNB1L,-0.242
UQCRC1,-0.352
DGCR8,-0.499
ULK1,0.0756
PECR,0.755
CCL18,-0.0285
DGCR6,-0.294
ZFAND5,-0.0576
EXOC6,-0.312
RXFP2,0.431
KAT6A,0.367
ACACB,0.0516
FAM3B,-0.391
APOLD1,0.16
SPINK7,0.795
REEP5,0.399
DDX3Y,0.138
RALBP1,-0.561
ERLIN1,0.759
TDRD1,0.368
NHP2,-0.498
RAB23,-0.198
ODF2,0.0744

Targets above whose target name starts with R or r (6):
gene symbol,mean correlation with KSR1 profile
ROR1,0.437
RYR1,0.0335
RXFP2,0.431
REEP5,0.399
RALBP1,-0.561
RAB23,-0.198
